Values from PubChem BioAssay AID1159584 (Peter MacCallum Cancer Centre, 2016).
Shown is a random part of about 18,000 reagents tested. Not all columns of the deposit are shown. No sequences are given here. Not stated in the record: the amount of reagent, the time to read-out.

- Test: 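Genes whose loss is lethal only together with E-cadherin loss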 (primary screen)
- Cell system: human MCF10A breast epithelial cells, parental and CDH1-null
- Reagents: siRNA against human genes
- Read-out: 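Cell viability by CellTiter-Glo ATP luminescence, each line scaled to the mean of mock wells across plates, then CDH1-null over parental ratio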
- Scale: CDH1-null / parental viability ratio: higher = CDH1-null cells survive relatively better than parental

| gene knocked down | CDH1-null / parental viability ratio |
| --- | --- |
| TOP3A (DNA topoisomerase III alpha) | 0.99 |
| DNAJB7 (DnaJ heat shock protein family (Hsp40) member B7) | 0.78 |
| GATA6 (GATA binding protein 6) | 1.1 |
| ODC1 (ornithine decarboxylase 1) | 1.02 |
| LNPK (lunapark, ER junction formation factor) | 1.05 |
| LRATD1 (LRAT domain containing 1) | 1.1 |
| CD320 (CD320 molecule) | 0.99 |
| UBXN4 (UBX domain protein 4) | 1.2 |
| OR1D4 (olfactory receptor family 1 subfamily D member 4) | 1.47 |
| PI4KA (phosphatidylinositol 4-kinase alpha) | 0.83 |
| SLC6A9 | 1.12 |
| OR12D3 (olfactory receptor family 12 subfamily D member 3) | 1.07 |
| FKBP7 (FKBP prolyl isomerase 7) | 1.04 |
| TAC4 (tachykinin precursor 4) | 0.98 |
| PDK4 (pyruvate dehydrogenase kinase 4) | 0.94 |
| GPR55 (G protein-coupled receptor 55) | 1.53 |
| TMEM174 (transmembrane protein 174) | 0.85 |
| KIF5B (kinesin family member 5B) | 1.09 |
| C9orf153 (chromosome 9 open reading frame 153) | 0.62 |
| SLC25A28 | 0.7 |
| ZC3HC1 (zinc finger C3HC-type containing 1) | 1 |
| USP39 (ubiquitin specific peptidase 39) | 1.2 |
| YIPF7 (Yip1 domain family member 7) | 1.23 |
| MKI67 (marker of proliferation Ki-67) | 1.41 |
| POU4F3 (POU class 4 homeobox 3) | 1.07 |
| OR2U1P (olfactory receptor family 2 subfamily U member 1 pseudogene) | 1.24 |
| ZNF543 (zinc finger protein 543) | 0.91 |
| ZNF514 (zinc finger protein 514) | 0.88 |
| COX14 (cytochrome c oxidase assembly factor COX14) | 1.34 |
| PEDS1 (plasmanylethanolamine desaturase 1) | 1.05 |
| PPP3CC (protein phosphatase 3 catalytic subunit gamma) | 1.37 |
| LIPM (lipase family member M) | 1.14 |
| PGAP1 (post-GPI attachment to proteins inositol deacylase 1) | 0.88 |
| PRPF38B (pre-mRNA processing factor 38B) | 0.89 |
| PEX11G (peroxisomal biogenesis factor 11 gamma) | 0.9 |
| GSTM2 (glutathione S-transferase mu 2) | 0.95 |
| MTPAP (mitochondrial poly(A) polymerase) | 1.09 |
| CASP14 (caspase 14) | 1.11 |
| MCMBP (minichromosome maintenance complex binding protein) | 1.04 |
| SYTL2 (synaptotagmin like 2) | 2.05 |
| APBB1IP | 0.92 |
| AR (androgen receptor) | 1.08 |
| POM121 (POM121 transmembrane nucleoporin) | 0.85 |
| OR10A6 | 1.26 |
| GSG1 (germ cell associated 1) | 1.43 |
| CDC42EP1 (CDC42 effector protein 1) | 0.87 |

An excerpt of the results above:
| gene knocked down | CDH1-null / parental viability ratio |
| --- | --- |
| TAC4 (tachykinin precursor 4) | 0.98 |
| PDK4 (pyruvate dehydrogenase kinase 4) | 0.94 |
| GPR55 (G protein-coupled receptor 55) | 1.53 |
